Where “and” joins values, the source holds several entries; their conditions need not be identical. Equal values may be shown once. Some of the results follow. The main result of the screen is listed elsewhere. These columns were measured beside it and carry no call. Most of these compounds were active or inconclusive in the main read-out, so they are no random draw. Potencies come from curve fits of mixed quality, noted in brackets.
Assay: qHTS Assay for Modulators of Lamin A Splicing
Settings: HeLa LMNA splicing GFP/RFP minigene ratio, 48 h
Summary of the method: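 Read-out is the ratio of GFP to DsRed2 object intensity, acquired by 488 nm laser-scanning cytometry on HeLa lamin A-EGFP minigene reporter cells. Compound incubation 48 hrs at 37 °C in Opti-MEM with 2% FBS; DMSO 0.5% final.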

[1] = measured here: GFP splicing reporter channel
[2] = measured here: RFP viability control channel

Structure (SMILES)	AC50 [1]	AC50 [2]
C1=C(c2ccc(-c3ccccc3)cc2)Nc2ncnn2C1c1ccco1 (stereo unspecified)	35.5 µM [falling, single point]	35.5 µM [falling, single point]
Cc1ccc(C2CCN(C(=O)Nc3ccccc3)C2)cc1 (stereo unspecified)	11.2 µM [rising, partial curve]	
CSc1ccc(/C=C/C(=O)OCC(=O)N(C)CCC#N)cc1	11.2 µM [falling, partial curve, poor fit]	
c1ccc(Cn2nnc3c(N4CCCCCC4)ncnc32)cc1		35.5 µM [rising, single point]
O=C(N/N=C/c1ccc([N+](=O)[O-])cc1)c1cccc2cc[nH]c12		10 µM [rising, partial curve, poor fit]
O=C(OCc1nc2ccccc2s1)c1cccc(S(=O)(=O)N2CCOCC2)c1	14.1 µM [rising, single point]	12.6 µM [rising, single point]
CCN1CCN(C(=S)NC(=O)/C=C/c2cccs2)CC1	20 µM [falling, partial curve]	7.08 µM [falling, full curve]
COc1ccccc1CCn1c(=O)c(-c2cccc(Cl)c2)nc2cncnc21	11.2 µM [falling, partial curve, poor fit]	
CCSc1nc2ccccc2n1C(=O)/C=C/c1ccc(OC)c(OC)c1	3.16 µM [falling, full curve]	3.55 µM [falling, single point]
COC(=O)c1cn(CCOc2ccccc2OC)c2ccccc12	35.5 µM [rising, single point]	25.1 µM [rising, single point]
CCCn1c(Sc2nnnn2-c2ccccc2)n[nH]c1=O		11.2 µM [rising, single point]
O=C(CSc1nc2ccccc2o1)Nc1cc(C(F)(F)F)ccc1N1CCOCC1		31.6 µM [rising, single point]
COC(=O)c1c(NC(NC(C)=O)C(Cl)(Cl)Cl)sc2c1CCCC2 (stereo unspecified)		31.6 µM [rising, single point]
CCOC(=O)c1cc(-c2ccc(N)cc2)sc1N		20 µM [rising, single point]
Cc1cccc(N2CCN(CCCNc3ncnc4onc(-c5ccc(Cl)cc5)c34)CC2C)c1 (stereo unspecified)	10 µM [falling, partial curve, poor fit]	
O=C(Nc1ccc(S(=O)(=O)N2CCN(Cc3ccccc3)CC2)cc1)c1cnccn1		3.55 µM [rising, full curve]
CCc1nnc(NS(=O)(=O)c2ccc(N/C=C\C(=O)c3cccc(OC)c3)cc2)s1		0.0251 µM [rising, full curve, poor fit]
O=[N+]([O-])c1ccc(Sc2n[nH]c(-c3ccc(Cl)cc3Cl)n2)nc1	11.2 µM [rising, partial curve]	0.501 µM [rising, partial curve, poor fit]

Structure (SMILES)	AC50 [1]	AC50 [2]
O=C(NCc1ccc2c(c1)OCO2)c1ccc(COc2cc(Cl)ccc2Cl)o1		15.8 µM [rising, single point]
CN(C)c1ccc(-c2n(C)c3ccccc3[n+]2C)cc1		3.55 µM [rising, partial curve, poor fit]
COC(=O)c1c(NC(=O)CN2CCN(c3ccccc3Cl)CC2)sc(C)c1C		22.4 µM [rising, partial curve, poor fit]
Cc1ccc(NC(=O)CN2C(=O)NC(C)(c3ccc(Cl)cc3)C2=O)cc1S(=O)(=O)N1CCOCC1 (stereo unspecified)		12.6 µM [rising, partial curve]
CN(C)S(=O)(=O)c1ccc(C(=O)Nc2nnc(-c3cccs3)o2)cc1		1.58 µM [rising, full curve, poor fit]
CC(=O)N1CCc2cc(CNC(=O)Cc3ccc(F)cc3)ccc21		0.00398 µM [falling, full curve, poor fit]
CCOC(=O)c1cnc2c(C)c(C)ccc2c1Nc1ccc(S(=O)(=O)Nc2ncccn2)cc1		0.0316 µM [rising, full curve, poor fit]
CCCCc1ccc(/C=C2\C(=O)c3ccccc3C(O)=C2C(=O)OCC)cc1	35.5 µM [falling, single point]	17.8 µM [rising, single point]
Cc1nnc(SCC(=O)c2cc(C)n(-c3ccc4c(c3)OCO4)c2C)s1		10 µM [rising, partial curve]
CCn1cc(C(=O)N2CCN(c3ccc([N+](=O)[O-])cc3)CC2)c(=O)c2ccc(C)nc21		1.26 µM [rising, single point]
Cc1ccccc1NC(=S)NNc1ncc(C(F)(F)F)cc1Cl		35.5 µM [rising, single point]
CN(C)/C=C(/C(=O)c1ccccc1)n1cncn1	0.708 µM [rising, full curve, poor fit]	0.447 µM [rising, full curve, poor fit]
CCCC/C=C/C(NC(=O)CCc1ccccc1)c1ccccc1 (stereo unspecified)		22.4 µM [rising, single point]
O=C(NC(NNc1ccc([N+](=O)[O-])cc1)(C(F)(F)F)C(F)(F)F)c1ccc(F)cc1		0.0355 µM [rising, full curve, poor fit]
OCCN1CCN(CC/C=C2/c3ccccc3Sc3ccc(C(F)(F)F)cc32)CC1	4.47 nM [rising, full curve, poor fit] and 15.8 µM [falling, partial curve]	17.8 µM [rising, partial curve] and 20 µM [falling, partial curve]
COc1ccc(C(=O)Nc2nc(-c3ccccc3)c(C(C)=O)s2)c(OC)c1	3.55 µM [falling, full curve]	4.47 µM [falling, full curve, poor fit]
CC(C)CCN1CCN(Cc2cnc(-c3ccccc3)s2)CC1CCO (stereo unspecified)	0.112 µM [falling, full curve, poor fit]	0.178 µM [falling, full curve, poor fit]

Looked up by compound from the entries so far:
Structure (SMILES)	AC50 [1]	AC50 [2]
CCCn1c(Sc2nnnn2-c2ccccc2)n[nH]c1=O		11.2 µM [rising, single point]
CCCCc1ccc(/C=C2\C(=O)c3ccccc3C(O)=C2C(=O)OCC)cc1	35.5 µM [falling, single point]	17.8 µM [rising, single point]
